Measured values reported in patent US20190359666A1.
No constants are given. Whether binding was seen depends on the method and setting. Some entries that bind do so weakly or less than the wild type.

Legend:
IGFBP3-Fc-VEGF-1 (human) [1] = assay: competition ELISA on chimera A, competitor of biotinylated VEGF (FIG. 9)
IGFBP3-Fc-VEGF-1 (human) [2] = assay: competition ELISA: unlabelled competitor against biotinylated VEGF (vegf-bio) binding to Chimera A, OD 450

binding (IGFBP3-Fc-VEGF-1 (human) [1]): binds
binding (IGFBP3-Fc-VEGF-1 (human) [2]): binds
B1: PIGF (ligand, UniProt P49763-2 21-149, looked up)
chain: AVPPQQWALSAGNGSSEVEVVPFQEVWGRSYCRALERLVDVVSEYPSEVEHMFSPSCVSLLRCTGCCGDENLHCVPVETANVTMQLLKIRSGDRPSYVELTFSQHVRCECRPLREKMKPERCGDAVPRR
